The effect of the compound repeats well; differences between the knockouts mostly do not.
Tested on: BT-20
Assay: relative cell number vs DMSO control (72 h) (% of DMSO); higher = less growth inhibition (more cells)
Experimental: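 QMAP-Seq: a pool of 5 breast cancer cell lines (ZR-75-1, SKBR3, HCC-38, MDA-MB-231, BT-20), each carrying 12 doxycycline-inducible Cas9 sgRNA perturbations (11 knockouts plus non-targeting sgNT), was treated with compounds for 72 h at four 10-fold doses (10 nM-10 uM or 1 nM-1 uM range). Barcodes were amplified and sequenced, and cell number was interpolated from 293T spike-in standard curves. The result is expressed as % of the median of DMSO wells. Two biological replicates.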

CS(=O)(=O)N1CCN(Cc2cc3nc(-c4cccc5[nH]ncc45)nc(N4CCOCC4)c3s2)CC1 [GDC0941]
Conditions	relative cell number
sgRNA knockout: sgATF3, 10 nM	96
sgRNA knockout: sgATF3, 100 nM	83.6
sgRNA knockout: sgATF3, 1000 nM	58.6
sgRNA knockout: sgATF3, 10000 nM	45
sgRNA knockout: sgATF4, 10 nM	109
sgRNA knockout: sgATF4, 100 nM	94.9
sgRNA knockout: sgATF4, 1000 nM	86.7
sgRNA knockout: sgATF4, 10000 nM	49.4
sgRNA knockout: sgATF6, 10 nM	98.4
sgRNA knockout: sgATF6, 100 nM	69.8
sgRNA knockout: sgATF6, 1000 nM	72.5
sgRNA knockout: sgATF6, 10000 nM	48.1
sgRNA knockout: sgATG7, 10 nM	91.7
sgRNA knockout: sgATG7, 100 nM	86.2
sgRNA knockout: sgATG7, 1000 nM	72.8
sgRNA knockout: sgATG7, 10000 nM	54.4
sgRNA knockout: sgERN1, 10 nM	97.4
sgRNA knockout: sgERN1, 100 nM	86.9
sgRNA knockout: sgERN1, 1000 nM	64.4
sgRNA knockout: sgERN1, 10000 nM	39
sgRNA knockout: sgHSF1, 10 nM	91.6
sgRNA knockout: sgHSF1, 100 nM	103
sgRNA knockout: sgHSF1, 1000 nM	65.1
sgRNA knockout: sgHSF1, 10000 nM	41.9
sgRNA knockout: sgHSF2, 10 nM	91.2
sgRNA knockout: sgHSF2, 100 nM	75
sgRNA knockout: sgHSF2, 1000 nM	67.9
sgRNA knockout: sgHSF2, 10000 nM	40.7
sgRNA knockout: sgKEAP1, 10 nM	95.88
sgRNA knockout: sgKEAP1, 100 nM	94
sgRNA knockout: sgKEAP1, 1000 nM	67
sgRNA knockout: sgKEAP1, 10000 nM	42.7
sgRNA knockout: sgNFE2L2, 10 nM	99.5
sgRNA knockout: sgNFE2L2, 100 nM	75.1
sgRNA knockout: sgNFE2L2, 1000 nM	75.2
sgRNA knockout: sgNFE2L2, 10000 nM	45
sgRNA knockout: sgSLC35F2, 10 nM	100.4
sgRNA knockout: sgSLC35F2, 100 nM	81.8
sgRNA knockout: sgSLC35F2, 1000 nM	78.7
sgRNA knockout: sgSLC35F2, 10000 nM	52.3
sgRNA knockout: sgXBP1, 10 nM	96.4
sgRNA knockout: sgXBP1, 100 nM	91.9
sgRNA knockout: sgXBP1, 1000 nM	72.4
sgRNA knockout: sgXBP1, 10000 nM	47.9

From the supplement of paper PMC7661543
